Measurements from patent US20260137759A1.
No constants are given. Whether binding was seen depends on the method and setting. In cells and extracts the contact can be indirect. Some binding calls cover weakened binding; strength is not graded here. Sequences can lack the tags named with a protein.

Target: TGFβ Receptor II/TF/IL-15 fusion protein (human)
Assay: reduced SDS-PAGE (4-12% NuPage Bis-Tris gel, InstantBlue) of TGFRt15-TGFRs purified on the anti-TF antibody affinity column, before and after deglycosylation; co-purification of the two chains

B1: TGFβ Receptor II/IL-15RαSu fusion protein (protein)
chain: IPPHVQKSVNNDMIVTDNNGAVKFPQLCKFCDVRFSTCDNQKSCMSNCSITSICEKPQEVCVAVWRKNDENITLETVCHDPKLPYHDFILEDAASPKCIMKEKKKPGETFFMCSCSSDECNDNIIFSEEYNTSNPDGGGGSGGGGSGGGGSIPPHVQKSVNNDMIVTDNNGAVKFPQLCKFCDVRFSTCDNQKSCMSNCSITSICEKPQEVCVAVWRKNDENITLETVCHDPKLPYHDFILEDAASPKCIMKEKKKPGETFFMCSCSSDECNDNIIFSEEYNTSNPDITCPPPMSVEHADIWVKSYSLYSRERYICNSGFKRKAGTSSLTECVLNKATNVAHWTTPSLKCIR
B1 was tested. Which binding did it give?
The binding was “binds”.
